Reference: the supplement of paper PMC4604168 (melanoma cell lines)
The list shows a part of the results. Single values are uncertain, as repeats are few or missing.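 Cells were imaged in 1,536-well plates, and nuclei stained with an antibody against cleaved PARP were counted against all DNA-stained nuclei to give the apoptosis fraction. Screening doses were chosen to leave most cells alive, and resting and induced cleaved-PARP levels differ strongly between cell lines.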

System: SkMel30
Assay: cleaved PARP positive nuclei fraction relative to DMSO control; melanoma cells; higher = more apoptosis
Conditions: library dose: low library concentration; 72 h

SMILES | cleaved PARP positive nuclei fraction [%]
CC[C@]1(O)C[C@H]2CN(CCc3c([nH]c4ccccc34)[C@@](C(=O)OC)(c3cc4c(cc3OC)N(C=O)[C@H]3[C@@](O)(C(=O)OC)[C@H](OC(C)=O)[C@]5(CC)C=CCN6CC[C@]43[C@@H]65)C2)C1 [vincristine] + CO[C@H]1C[C@@H]2CC[C@@H](C)[C@@](O)(O2)C(=O)C(=O)N2CCCC[C@H]2C(=O)O[C@H]([C@H](C)C[C@@H]2CC[C@@H](OCCO)[C@H](OC)C2)CC(=O)[C@H](C)/C=C(\C)[C@@H](O)[C@@H](OC)C(=O)[C@H](C)C[C@H](C)/C=C/C=C/C=C/1C [everolimus] (first compound 0.0001 µM, partner dose 0.02 µM) | 178
COc1cc([C@@H]2c3cc4c(cc3[C@@H](O[C@@H]3O[C@@H]5CO[C@@H](C)O[C@H]5[C@H](O)[C@H]3O)[C@H]3COC(=O)[C@H]23)OCO4)cc(OC)c1O [etoposide] + CC1(C)CCC(c2ccc(Cl)cc2)=C(CN2CCN(c3ccc(C(=O)NS(=O)(=O)c4ccc(N[C@H](CCN5CCOCC5)CSc5ccccc5)c(S(=O)(=O)C(F)(F)F)c4)cc3)CC2)C1 [ABT263] (first compound 0.02 µM, partner dose 0.4 µM) | 101
CC[C@]1(O)C[C@H]2CN(CCc3c([nH]c4ccccc34)[C@@](C(=O)OC)(c3cc4c(cc3OC)N(C=O)[C@H]3[C@@](O)(C(=O)OC)[C@H](OC(C)=O)[C@]5(CC)C=CCN6CC[C@]43[C@@H]65)C2)C1 [vincristine] + NC(=O)c1ccc(N(C(N)=O)c2c(F)cccc2F)nc1-c1ccc(F)cc1F [VX702] (first compound 0.0001 µM, partner dose 0.4 µM) | 398
Cc1ccc(Nc2nccc(N(C)c3ccc4c(C)n(C)nc4c3)n2)cc1S(N)(=O)=O [Pazopanib] + C=CCNC1=C2C[C@@H](C)C[C@H](OC)[C@H](O)[C@@H](C)/C=C(\C)[C@H](OC(N)=O)[C@@H](OC)/C=C\C=C(/C)C(=O)NC(=CC1=O)C2=O [Tanespimycin] (first compound 0.4 µM, partner dose 0.002 µM) | 89.6
O=C(Nc1cc(C(F)(F)F)cc(C(F)(F)F)c1)c1cc(Cl)ccc1O + Cn1c(=O)n(-c2ccc(C(C)(C)C#N)cc2)c2c3cc(-c4cnc5ccccc5c4)ccc3ncc21 [NVP-BEZ235] (first compound 0.016 µM, partner dose 0.004 µM) | 69.4
Cc1cn(-c2cc(NC(=O)c3ccc(C)c(Nc4nccc(-c5cccnc5)n4)c3)cc(C(F)(F)F)c2)cn1 [nilotinib] + Cc1nc(Nc2ncc(C(=O)Nc3c(C)cccc3Cl)s2)cc(N2CCN(CCO)CC2)n1 [dasatanib] (first compound 0.2 µM, partner dose 0.004 µM) | 98.1
Cc1cc(Nc2cc(N3CCN(C)CC3)nc(Sc3ccc(NC(=O)C4CC4)cc3)n2)n[nH]1 [Tozasertib] + O=C(O)c1ccc2c(c1)nc(Nc1cccc(Cl)c1)c1ccncc12 [CX4945] (first compound 0.006 µM, partner dose 0.4 µM) | 55.2
O=C(Nc1cc(C(F)(F)F)cc(C(F)(F)F)c1)c1cc(Cl)ccc1O + CO[C@H]1C[C@@H]2CC[C@@H](C)[C@@](O)(O2)C(=O)C(=O)N2CCCC[C@H]2C(=O)O[C@H]([C@H](C)C[C@@H]2CC[C@@H](OCCO)[C@H](OC)C2)CC(=O)[C@H](C)/C=C(\C)[C@@H](O)[C@@H](OC)C(=O)[C@H](C)C[C@H](C)/C=C/C=C/C=C/1C [everolimus] (first compound 0.016 µM, partner dose 0.02 µM) | 398
Cc1cc(Nc2cc(N3CCN(C)CC3)nc(Sc3ccc(NC(=O)C4CC4)cc3)n2)n[nH]1 [Tozasertib] + Nc1cccc2c1CN(C1CCC(=O)NC1=O)C2=O [lenalidomide] (first compound 0.006 µM, partner dose 1 µM) | 39.5
O=C(Nc1cc(C(F)(F)F)cc(C(F)(F)F)c1)c1cc(Cl)ccc1O + Cn1nnc2c(C(N)=O)ncn2c1=O [temozolomide] (first compound 0.016 µM, partner dose 2 µM) | 117
COc1cc([C@@H]2c3cc4c(cc3[C@@H](O[C@@H]3O[C@@H]5CO[C@@H](C)O[C@H]5[C@H](O)[C@H]3O)[C@H]3COC(=O)[C@H]23)OCO4)cc(OC)c1O [etoposide] + Cn1sc(=O)n(Cc2ccccc2)c1=O [TDZD-8] (first compound 0.02 µM, partner dose 0.4 µM) | 176
